Assay results: PMC10912509
No constants are given. Whether binding was seen depends on the method and setting. In cells and extracts the contact can be indirect. Some entries that bind do so weakly or less than the wild type. For some assays here: Sequences can lack the tags named with a protein. Each block holds one molecule with its values, some of them ahead of it.

Chains of the proteins cited; added tags and fusions are not shown. Lines headed by an entry give the natural chain unless they say otherwise; changes in a name come on top.
UniProt Q14258: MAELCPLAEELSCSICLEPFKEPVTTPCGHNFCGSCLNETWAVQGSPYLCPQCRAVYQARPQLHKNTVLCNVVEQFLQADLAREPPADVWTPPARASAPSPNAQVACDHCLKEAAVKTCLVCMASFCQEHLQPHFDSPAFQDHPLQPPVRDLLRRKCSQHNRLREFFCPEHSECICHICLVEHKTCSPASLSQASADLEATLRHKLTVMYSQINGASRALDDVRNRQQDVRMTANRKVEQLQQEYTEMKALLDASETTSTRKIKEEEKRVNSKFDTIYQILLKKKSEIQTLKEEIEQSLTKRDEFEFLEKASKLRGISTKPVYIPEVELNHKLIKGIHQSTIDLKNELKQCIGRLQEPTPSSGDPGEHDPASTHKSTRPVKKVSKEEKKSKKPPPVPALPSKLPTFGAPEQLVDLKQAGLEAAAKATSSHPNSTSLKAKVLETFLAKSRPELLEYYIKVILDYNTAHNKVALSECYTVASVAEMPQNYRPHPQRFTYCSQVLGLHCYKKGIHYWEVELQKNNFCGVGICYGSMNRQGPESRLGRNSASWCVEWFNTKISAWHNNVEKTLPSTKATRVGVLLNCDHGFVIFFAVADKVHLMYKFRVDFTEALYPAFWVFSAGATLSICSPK

Columns and labels:
[1] = target: T1, Flag-tagged ITPKB (inositol 1,4,5-triphosphate (IP3) kinase B), wild type (UniProt P27987); assay: co-IP; Trim25 S100D and S100A mutants with ITPKB; HEK293T cells co-transfected with the respective plasmids, MG132 for 3 h after 48 h of transfection, lysates immunoprecipitated and blotted (told at the end of the legend, after panel e); which protein was precipitated is not told
T1 sequence: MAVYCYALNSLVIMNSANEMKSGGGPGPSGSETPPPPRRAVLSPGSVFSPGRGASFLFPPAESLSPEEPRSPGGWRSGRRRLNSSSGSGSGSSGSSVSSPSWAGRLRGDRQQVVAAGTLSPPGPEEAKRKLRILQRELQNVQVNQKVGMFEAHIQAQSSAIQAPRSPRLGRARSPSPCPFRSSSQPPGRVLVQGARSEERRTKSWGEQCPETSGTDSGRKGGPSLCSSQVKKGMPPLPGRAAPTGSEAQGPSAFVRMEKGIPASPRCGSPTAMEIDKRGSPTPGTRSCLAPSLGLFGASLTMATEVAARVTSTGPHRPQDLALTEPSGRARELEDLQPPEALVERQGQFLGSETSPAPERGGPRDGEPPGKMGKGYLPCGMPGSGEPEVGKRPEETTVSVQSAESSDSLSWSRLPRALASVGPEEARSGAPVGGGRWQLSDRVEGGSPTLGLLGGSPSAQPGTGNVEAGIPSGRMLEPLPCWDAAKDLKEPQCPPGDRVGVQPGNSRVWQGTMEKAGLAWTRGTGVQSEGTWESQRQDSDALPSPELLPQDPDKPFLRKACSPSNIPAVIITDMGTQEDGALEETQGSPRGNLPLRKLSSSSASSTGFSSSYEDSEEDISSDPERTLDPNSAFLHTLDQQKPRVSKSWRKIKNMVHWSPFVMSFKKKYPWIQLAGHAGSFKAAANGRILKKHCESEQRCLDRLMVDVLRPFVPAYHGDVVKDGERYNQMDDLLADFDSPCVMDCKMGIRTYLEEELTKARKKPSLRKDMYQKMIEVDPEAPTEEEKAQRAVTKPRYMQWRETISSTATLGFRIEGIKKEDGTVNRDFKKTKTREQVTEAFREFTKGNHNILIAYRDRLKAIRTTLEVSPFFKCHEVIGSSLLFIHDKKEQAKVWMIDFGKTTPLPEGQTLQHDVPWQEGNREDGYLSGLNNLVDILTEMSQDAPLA

[2] = target: T1, Flag-tagged ITPKB (inositol 1,4,5-triphosphate (IP3) kinase B), wild type; assay: co-IP; HEK293T cells transfected with Flag-ITPKB (WT or truncations) and V5-Trim25; lysates precipitated with Anti-FLAG M2 magnetic beads, blotted; NETN buffer, overnight at 4 °C; in one panel cells pretreated with 100 μM TMZ, then 50 μM MG132 for 3 h
[3] = target: Trim25, endogenous (human (endogenous in T98G, U118, T98G-R, U118-R, HEK293T)) (UniProt Q14258); assay: co-IP; endogenous proteins; lysates of TMZ-sensitive (T98G, U118) and resistant (T98G-R, U118-R) glioma cells precipitated with control IgG or anti-Trim25 antibody and protein A/G magnetic beads, NETN buffer (20 mM Tris-HCl pH 8.0, 500 mM NaCl, 1 mM EDTA, 0.5% NP-40), overnight at 4 °C; also T98G and U118 after 100 μM TMZ for 48 h
[4] = target: Trim25, endogenous (human (endogenous in T98G, U118, T98G-R, U118-R, HEK293T)) (UniProt Q14258); assay: proximity ligation; Duolink in situ PLA with Trim25 and ITPKB antibodies on fixed, permeabilised TMZ-sensitive and resistant glioma cells; dots counted with ImageJ

binding [1]: binds
Molecule: Trim25 S100A mutant (from UniProt Q14258 1-630) (enzyme)

binding [3]: binds
binding [4]: binds
B1: ITPKB, endogenous (enzyme, UniProt P27987 1-946)
chain: MAVYCYALNSLVIMNSANEMKSGGGPGPSGSETPPPPRRAVLSPGSVFSPGRGASFLFPPAESLSPEEPRSPGGWRSGRRRLNSSSGSGSGSSGSSVSSPSWAGRLRGDRQQVVAAGTLSPPGPEEAKRKLRILQRELQNVQVNQKVGMFEAHIQAQSSAIQAPRSPRLGRARSPSPCPFRSSSQPPGRVLVQGARSEERRTKSWGEQCPETSGTDSGRKGGPSLCSSQVKKGMPPLPGRAAPTGSEAQGPSAFVRMEKGIPASPRCGSPTAMEIDKRGSPTPGTRSCLAPSLGLFGASLTMATEVAARVTSTGPHRPQDLALTEPSGRARELEDLQPPEALVERQGQFLGSETSPAPERGGPRDGEPPGKMGKGYLPCGMPGSGEPEVGKRPEETTVSVQSAESSDSLSWSRLPRALASVGPEEARSGAPVGGGRWQLSDRVEGGSPTLGLLGGSPSAQPGTGNVEAGIPSGRMLEPLPCWDAAKDLKEPQCPPGDRVGVQPGNSRVWQGTMEKAGLAWTRGTGVQSEGTWESQRQDSDALPSPELLPQDPDKPFLRKACSPSNIPAVIITDMGTQEDGALEETQGSPRGNLPLRKLSSSSASSTGFSSSYEDSEEDISSDPERTLDPNSAFLHTLDQQKPRVSKSWRKIKNMVHWSPFVMSFKKKYPWIQLAGHAGSFKAAANGRILKKHCESEQRCLDRLMVDVLRPFVPAYHGDVVKDGERYNQMDDLLADFDSPCVMDCKMGIRTYLEEELTKARKKPSLRKDMYQKMIEVDPEAPTEEEKAQRAVTKPRYMQWRETISSTATLGFRIEGIKKEDGTVNRDFKKTKTREQVTEAFREFTKGNHNILIAYRDRLKAIRTTLEVSPFFKCHEVIGSSLLFIHDKKEQAKVWMIDFGKTTPLPEGQTLQHDVPWQEGNREDGYLSGLNNLVDILTEMSQDAPLA

Further lines, the molecule ahead of its results:

Molecule: Trim25 S100D mutant (from UniProt Q14258 1-630) (enzyme)
binding [1]: binds

Molecule: V5-tagged Trim25, wild type (from UniProt Q14258 1-630) (enzyme)
binding [2]: binds
